Z-score data for 103 sequences are collected here from PubChem BioAssay AID1347423 (Functional Genomics Laboratory (NCATS/FGL), 2020).

Among all 52,000 sequences or so, about 210 (0.4%) were called active.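 The calls were made as follows: active = gene whose silencing raises cell survival under the drug, median off-target-corrected z-score across its silencing RNAs 2 or more; inactive = the rest.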 This is one part of the list.

The assay can be described thus: Resistance to Poly (ADP-Ribose) Polymerase inhibitor: Gene Identification via Genome-wide siRNA Screen. The settings on record: mouse BRCA2 R2336H ES cells, olaparib, CellTiter-Glo viability; hits give high values. A digest of the protocol: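 Genome-wide siRNA screen (3 siRNAs/gene, 20 nM) in mouse ES cells carrying hypomorphic BRCA2 R2336H; olaparib 500 nM added 48 h post-transfection, CellTiter-Glo viability 72 h later. Normalized to plate-median negative control; MAD z-scores, gene median, seed-adjusted.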
Turning to CCAAACUUAAGCCUAUUCUTT against Mme, the z-score is inactive: -0.138.
On to CGAUAAUUGGCUAAACAGATT against Hook3, for which the z-score is inactive: 0.185.
With GCUAAUGACUUCUUCAGACTT against Slc25a22 the figure was inactive: 1.23; with GGCAUCAAUAAUGGAAUCATT against Sbsn, inactive: -0.399.
The result for CCAGCACGCUGAAGUCUGATT against Adam19 reads inactive: -1.2; that for GGAUGACCAAUCAAUCAGGTT against Mylk, inactive: 0.267; that for GGAGUGAUGUGCAAUACUUTT against Pgam1, inactive: -1.21.
With GCGCAUUCUGCAUCAUGCUTT against Chi3l3, the z-score is inactive: -0.374.
Consider “GUGGACAUCCUCUCUGUCATT against 1810017F10Rik”, for which the z-score was inactive: -0.823.
As for UCACCCUGUUCGUAAUCAUTT against Olfr467, the z-score was inactive: -0.886.
With CCUAGAUGUUUGUUUGGCUTT against Antxr2, the z-score is inactive: 0.226.
With “GCAUAUGGACUUUCUGUCATT against 1700069O15Rik” the figure was inactive: -0.349; with “GGAACCUCUCAAUUUUGCGTT against 1500004A08Rik”, inactive: -1.16.
The result for CGUGCAUGUGUAAGUCAGGTT against Hpvc2 reads inactive: 0.307; that for CGAAUGUGUGAGAGAACAUTT against Zfp322a, inactive: -2.08; that for GGACCUGAAGAAAUAUUUCTT against Cdk5, inactive: 0.437.
With “GGAAAGAGAUGAGAAUUUUTT against 4930447C04Rik”, the z-score is inactive: 1.3.
Turning to GGCUACCAGUUUAUCCACATT against Has3, the z-score is inactive: -0.192.
With GCUUUUUGUGAAACUGGCCTT against Pstpip2 the figure was inactive: 1.38.
With GGUACCUCUGGAAAAUGAGTT against Rfng the figure was inactive: 0.931.
With GGCCAUUGCCAAGCACAAUTT against Trim35, the z-score is inactive: -0.397.
With “GGUCCUUGGAGAAGAUAUUTT against 2510006D16Rik”, the z-score is inactive: -1.43.
GCUUGUACUCUUUGGCCGGTT against Rabac1: the z-score was inactive: 1.25.
For “CGGAAGUCUACACGUCUUGTT against 2610034B18Rik”, the z-score was inactive: -1.49.
The result for “GGAAGAGGAUGACAAGACATT against 1300010K09Rik” reads inactive: -0.207.
GGCUACGUAGAUGUUGUAATT against Ankrd17: the z-score was inactive: -0.482.
In the case of GGAUUUUCACUUUUACUCUTT against BC031748, the z-score was inactive: -0.035.
GGACCCGUAUUUUAUGAAGTT against Sf3a2: the z-score was inactive: -1.67.
In the case of GGCUCUGACCAAGAAUGAUTT against Cpsf1, the z-score was inactive: 1.05.
CGGGACCUUUGUAACAGCUTT against Sirt3: the z-score was inactive: 0.676.
In the case of CCAAUUGCUCUCCAUGAAATT against Coro1c, the z-score is inactive: 0.402.
The result for GGAGAAGUGGGUUAAGAAUTT against Ccl12 reads inactive: -0.585; that for CCACAUUAGGUGGAUAGGATT against E2f6, inactive: -0.183.
The result for CGCGUGAUUGAUGUUUUACTT against Sca10 reads inactive: 0.765.
Turning to GCUAUGAAAGGGCGAUUUGTT against Optn, the z-score is inactive: 1.77.
With “GGAGGCUUAGGAUAAUUUATT against 2810046L04Rik” the figure was inactive: -0.332; with CCUCACUUAACCAUACAUGTT against Rhoe, inactive: -0.16; with GGGAGACUGGUUCUUGAAGTT against Slc38a5, inactive: 1.47.
As for GGAGUUCUUUCUGAUAUCATT against Net1, the z-score was inactive: 3.65.
The result for GGAUGGAUGAUCCAUACUGTT against Sell reads inactive: 0.429.
GCAAGAAUCUGCUCUUAGUTT against AW547186: the z-score was inactive: -0.375.
The result for CCCUAUAAGCAACUUAUGCTT against MGC6357 reads inactive: 0.548.
For the sequence GGCAUCACUGGUAAACAUUTT against Frzb, the z-score is inactive: -1.68.
With GCUUGCCUGCAUGGAUACATT against Olfr1203 the figure was inactive: -0.104; with GGAUUACGCAGAUUCCAUUTT against Rab22a, inactive: -0.235.
Regarding “GCCACUGGGACCUAUUGAUTT against 6230410P16Rik”, the z-score is inactive: 0.0057.
In the case of CGAAGAGAAGUUAUUUGUATT against Mrps23, the z-score was inactive: 0.797.
The result for GAACCUAAAGUCAUACUUGTT against Bcl2a1c reads inactive: -0.796.
Turning to “GCAGAUUUUAGCUCCUCGATT against 5730410E15Rik”, the z-score is inactive: -0.297.
For the sequence GGAAAAUCAAGACCUAUGGTT against Obox6, the z-score is inactive: -2.62.
With GGAGAGAAAUCCAAAACCCTT against Arf6 the figure was inactive: 0.524; with GGAAAAGACAUCAUUGUGCTT against Olfr914, inactive: 0.837; with GGCAGAAGGAACAAGAGAATT against Cd209b, inactive: -0.78.
Take CCAUUUAUAUCAGGCAUCATT against Lrrc21: the z-score is inactive: -0.0912.
As for GGAAGUCAAGCAAAAGUUUTT against Hsd17b7, the z-score is inactive: -0.221.
The result for GGAAUGAAAGACAACCUAATT against Epb4.2 reads inactive: -0.254; that for GCUUCCUAGAUCAUGACUGTT against Ube2g2, inactive: -0.719; that for “GGCCAAGUUCGGCAUCUUUTT against 0610025O11Rik”, inactive: 1.53.
For the sequence GGUAGUGCAAGUGUUCCGCTT against Kcns1, the z-score was inactive: 1.13.
Consider GGAGGCCAAAGGACUGAUCTT against AU042671, for which the z-score was inactive: 0.245.
Consider GCUGUACGAGAAUAAGAAGTT against Impact, for which the z-score is inactive: -0.431.
Consider GCCUCUACAAGCCAACAUGTT against Pdgfc, for which the z-score was inactive: -1.94.
Take CCAGAGCGAGUACAUUGCATT against Xpnpep1: the z-score is inactive: -2.63.
In the case of GAGCGAACAUGUGUUUUACTT against Hist1h4h, the z-score is inactive: 0.062.
Consider GGAGCAAAAAUUCUCCCAUTT against Il18rap, for which the z-score was inactive: -1.16.
In the case of GGCCAUGAUGGCUUUUACUTT against Serpinf2, the z-score is inactive: 1.68.
The result for GGUUCCUGAGUCCUGAAUUTT against Mrpl19 reads inactive: -2.51; that for CCUAAGUAAGAUGACAUUUTT against Slc35f5, inactive: -0.877; that for GGGAGAAAAAGCCCGGUGATT against Slc22a18, inactive: -0.711.
With CCAGUAAAACCUCUAACAATT against Kremen the figure was inactive: -0.422; with CCUAAUGAUAGAGGAGCUGTT against Myoz3, inactive: -0.849; with GGUCUCCAAGGAAAAUGAGTT against H2-Q2, inactive: -0.529.
The result for GGGUACCUCCCUGAGAUAUTT against Tyrobp reads inactive: 0.844; that for GGAGAGUCCACUAAUACUGTT against Dmrt3, inactive: -1.02.
Consider GGGAUGCAUUUCUCAAAUCTT against Olfr731, for which the z-score was inactive: 0.0578.
The result for GGAAACUUACAAACUGCCGTT against Bhlhb2 reads inactive: 1.03.
The result for “CGAGGUCUGUGCUUAUGAGTT against 3321401G04Rik” reads inactive: 0.365.
The result for GAUGGAUCGAACUCUGCACTT against Stard10 reads inactive: 0.256; that for GGUCAACAUGGAGAAGUACTT against Sp100, inactive: -1.34; that for UGCUUUCAUUCUAACAAGCTT against Olfr926, inactive: -0.531.
Consider GGAACAGCCUGUCAUUGAATT against Scn1a, for which the z-score is inactive: -0.152.
With GUGUGUGAUGUUCCCUAUGTT against LOC56628, the z-score was inactive: 0.0282.
CGUAGAUCUGGAUUGCUUUTT against Poli: the z-score was inactive: -1.29.
With GGUGUUUACUAGUUUCUGATT against Neurod6 the figure was inactive: 1.18.
For the sequence “CCGAAUGUGGAUGUGAUGATT against 4930518F03Rik”, the z-score was inactive: 1.22.
Turning to “GGAUACGACACCAAGAAUATT against C230093N12Rik”, the z-score was inactive: -0.442.
With “GGGCUCCUUGUUUUAUUCUTT against 2610524G07Rik”, the z-score was inactive: 0.812.
With CCAGGUGUACGUCCUACAATT against Pofut2, the z-score is inactive: 0.174.
Consider CGCCCUGUUUGGUGAACUUTT against Pcdhga2, for which the z-score was inactive: -2.2.
The result for “GUGCAAACGGCAAACAUUCTT against 1700001G17Rik” reads inactive: -1.01; that for GGGCUAUCCUUCUGAAUUUTT against Csnk1d, inactive: 1.49; that for CGUGAAGGAAACUUUUCAGTT against AI931714, inactive: 0.853.
The result for GGAUAUUGAUUCAGUCAAGTT against Rac2 reads inactive: -0.165.
For the sequence “CCUUGUUGCUUUCCUAACCTT against 2010002M12Rik”, the z-score is inactive: 1.03.
With GGAACCCAUCUCUCAAGCATT against Atp5g1 the figure was inactive: -0.643; with “GCGGACACUACCACCGUUUTT against 4930477M19”, inactive: 0.636.
Turning to CCAAUUCUACCUAUUACAGTT against Apxl, the z-score is inactive: -1.69.
For GGUGAAGCGAAUUCUCUACTT against Upb1, the z-score was inactive: -0.423.
For “GGGACAUUGUGUUGGACGUTT against 3110031B13Rik”, the z-score is inactive: -0.0333.
With CCAGAAUGGCUAAGGGAAATT against LOC433886 the figure was inactive: 0.512; with GGUGUUUAAUUGCUCACUATT against BC021523, inactive: -0.71; with “CGAAAGCUAAACUAAAAGATT against 2310014H19Rik”, inactive: 1.67.
The result for GCGAACGAGACACUUCAAUTT against Pla2g4a reads inactive: 0.583.
